{
  "source": "PubChem BioAssay AID504842",
  "about": "(National Center for Advancing Translational Sciences (NCATS), 2011)",
  "note": "Among all 330,000 compounds or so, about 100 (0.03%) were called active. Inconclusive results, whose numbers are uncertain, are shown with a selection of clear calls. Calls come from the whole dose curve; as a rule, active = well fitted inhibition curve with a large enough effect; inconclusive = small, poorly fitted or top-dose-only effect; inactive = flat fitted curve, though single readings scatter. Potencies of inconclusive entries are doubtful fits and often do not repeat. % is set by controls: 0 for no effect and ±100 for the full control effect; potency is the fitted concentration of half-maximal effect.",
  "data": [
    {"tested_on": "Chaperonin Mm-Cpn (Methanococcus maripaludis)", "test": "Inhibitors of TCP-1 ring complex (TRiC) of Methanococcus maripaludis (MmCpn): qHTS; note: nearly all actives have a fitted effect of over 80% in size;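 for Potency: enzyme at 25 nM with ATP substrate at 10 µM during the reaction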", "conditions": "purified Mm-Cpn ATPase, ADP Transcreener TR-FRET; activity, negative = inhibition: at the top concentration", "in_short": "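25 nM Mm-CPN + cpd, 10 min 37°C; + 10 uM ATP, 30 min 37°C; buffer 30 mM Tris pH 7.4, 100 mM KCl, 5 mM MgCl2, 1 mM DTT; Transcreener ADP HTRF detection 30 min RT.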", "values": [
      {"smiles": "Cc1cc2ccccc2n1CCNC(=O)Cc1cccc2ccccc12", "Potency": "inconclusive: 100 µM [inhibitor, single point]"},
      {"smiles": "CCOC(=O)c1c(NC(=O)CSc2ncnc3[nH]ncc23)sc2c1CCC(C)C2", "note": "(configuration not stated)", "activity, negative = inhibition": "inactive: -0.69%"},
      {"smiles": "O=C(NCc1ccccc1)C(C(=O)c1ccc(F)cc1)n1ccccc1=O", "note": "(configuration not stated)", "Potency": "inconclusive: 89.1 µM [inhibitor, single point]"},
      {"smiles": "O=C(Sc1nnc(-c2ccccc2)o1)N1c2ccccc2Sc2ccccc21", "Potency": "inconclusive: 89.1 µM [inhibitor, partial curve]"},
      {"smiles": "COc1cc(/C=C(\\C#N)C(=O)NC2CCCCC2C)ccc1OS(=O)(=O)c1ccc(C)cc1", "note": "(configuration not stated)", "activity, negative = inhibition": "inactive: 0.129%"},
      {"smiles": "S=c1[nH]nc(-c2cc(-c3ccccc3)n[nH]2)n1/N=C/C=C/c1ccccc1", "activity, negative = inhibition": "inactive: -1.26%"},
      {"smiles": "Cc1ccc(-c2cc(C(=O)Nc3ccc(S(=O)(=O)Nc4nc(C)cc(C)n4)cc3)c3ccccc3n2)cc1", "Potency": "inconclusive: 25.1 µM [inhibitor, single point]"},
      {"smiles": "CSCCC(NC(=O)OC(C)(C)C)C(=O)Oc1ccc2c(=O)c(-c3ccc4c(c3)OCCO4)coc2c1", "note": "(configuration not stated)", "activity, negative = inhibition": "inactive: -1.92% [at 15.4 µM]"},
      {"smiles": "O=C(CC1OC(=O)c2ccccc21)Nc1cc(S(=O)(=O)N2CCOCC2)ccc1OCC(F)(F)F", "note": "(configuration not stated)", "activity, negative = inhibition": "inactive: -2.54%"},
      {"smiles": "O=C(CCNc1cccc(F)c1)c1cc2ccccc2o1", "activity, negative = inhibition": "inactive: -22.5%"},
      {"smiles": "CCOc1cccc2sc(N(CCN(C)C)C(=O)c3ccc4ccccc4c3)nc12", "activity, negative = inhibition": "inactive: -0.623%"},
      {"smiles": "CC(=O)c1ccc(NC(=O)CSc2ccc(-c3ccc(-n4cccn4)cc3)nn2)cc1", "Potency": "inconclusive: 100 µM [inhibitor, single point]"},
      {"smiles": "O=C(Nc1ccc(F)cc1F)Nc1sccc1-c1nc2ccccc2s1", "Potency": "inconclusive: 70.8 µM [inhibitor, single point]"},
      {"smiles": "Cc1ccc(C)c(C(C)NC(=O)CC#N)c1", "note": "(configuration not stated)", "activity, negative = inhibition": "inactive: 1.77%"},
      {"smiles": "O=C(CCl)Nc1cccc(Oc2ccccc2)c1", "Potency": "inconclusive: 14.1 µM [inhibitor, single point]"},
      {"smiles": "O=c1c2c(nc3cc(-c4ccc(F)cc4)[nH]n13)CCC2", "activity, negative = inhibition": "inactive: -2.31%"},
      {"smiles": "COc1ccc(-c2nc(-c3cccs3)c(-c3cccs3)[nH]2)cc1O", "Potency": "inconclusive: 44.7 µM [inhibitor, partial curve, poor fit]"},
      {"smiles": "Cc1c(NS(=O)(=O)c2ccc3c(c2)OCCO3)cccc1-c1nc2cccnc2s1", "Potency": "inconclusive: 89.1 µM [inhibitor, partial curve, poor fit]"},
      {"smiles": "O=C(Nc1ccc2c(c1)OCCO2)c1cc2sccc2n1Cc1ccccc1", "Potency": "inconclusive: 100 µM [inhibitor, single point]"},
      {"smiles": "O=C(CSc1nnc(-c2cccs2)o1)c1cccs1", "Potency": "inconclusive: 39.8 µM [inhibitor, partial curve, poor fit]"},
      {"smiles": "O=C(CN1C(=O)NC2(CCCC2)C1=O)Nc1cc(S(=O)(=O)N2CCOCC2)ccc1OCC(F)(F)F", "Potency": "inconclusive: 28.2 µM [inhibitor, single point]"},
      {"smiles": "O=C(c1cc(N2C(=O)C3C4CCC(C4)C3C2=O)ccc1Cl)N1CCCCCC1", "note": "(configuration not stated)", "Potency": "inconclusive: 100 µM [inhibitor, single point]"},
      {"smiles": "CC(=O)NCc1cc(-c2nn(C)c(=O)c3ccccc23)ccc1C", "activity, negative = inhibition": "inactive: 1.27%"},
      {"smiles": "CCC(=O)N1CCN=C1SCc1cc(C)ccc1C", "Potency": "inconclusive: 100 µM [inhibitor, single point]"},
      {"smiles": "COc1ccc2cc3cc(C(=O)NCc4ccco4)oc3nc2c1", "activity, negative = inhibition": "inactive: -2.93%"},
      {"smiles": "O=C(CSc1nc2ccccc2c(=O)n1CC1CCCO1)NCc1ccc2c(c1)OCO2", "note": "(configuration not stated)", "activity, negative = inhibition": "inactive: -21.6%"},
      {"smiles": "CCN(c1ccccc1)S(=O)(=O)c1cc(CN2C(=O)c3cccnc3C2=O)ccc1OC", "Potency": "inconclusive: 22.4 µM [inhibitor, single point]"},
      {"smiles": "COc1ccc(/C=C/c2nc(-c3ccccc3O)n(-c3ccccc3)n2)cc1", "Potency": "inconclusive: 11.2 µM [inhibitor, single point]"},
      {"smiles": "COc1ccccc1N1CCN(C(c2cccs2)C(C)NC(=O)C(=O)N2CCCCC2)CC1", "note": "(configuration not stated)", "Potency": "inconclusive: 100 µM [inhibitor, partial curve, poor fit]"},
      {"smiles": "Cc1ccccc1N1C(=O)c2cccc([N+](=O)[O-])c2C1=O", "Potency": "inconclusive: 100 µM [inhibitor, partial curve, poor fit]"},
      {"smiles": "COc1ccc2c(c1OC)CN(C)CCc1cc3c(cc1C(=O)C2)OCO3", "activity, negative = inhibition": "inactive: 1.36%"},
      {"smiles": "Cc1cc(NC(=O)c2cc(-c3cccc(OCC(C)C)c3)nc3ccccc23)no1", "Potency": "inconclusive: 112 µM [inhibitor, single point]"},
      {"smiles": "O=C(O)c1ccccc1C(=O)Nc1ccc(-c2csc(-c3ccccc3)n2)cc1", "Potency": "inconclusive: 794 µM [inhibitor, partial curve, poor fit]"},
      {"smiles": "O=C(C1CC1)N(Cc1ccco1)c1nc(-c2ccccc2)cs1", "Potency": "inconclusive: 112 µM [inhibitor, partial curve, poor fit]"},
      {"smiles": "Cc1ccc(C2C(C#N)=C(N)SC(N)=C2C#N)c(C)c1", "Potency": "inconclusive: 100 µM [inhibitor, single point]"},
      {"smiles": "Cc1cccc(-n2nc3c(c2NC(=O)c2ccc(Br)o2)CSC3)c1", "Potency": "inconclusive: 398 µM [inhibitor, partial curve, poor fit]"},
      {"smiles": "O=C(c1cc(-c2cccs2)nc2ccccc12)N1CCN(S(=O)(=O)c2ccccc2)CC1", "Potency": "inconclusive: 70.8 µM [inhibitor, single point]"},
      {"smiles": "CCOC(=O)C(C(=O)OCC)C(Nc1ccc(Br)cc1)c1ccccc1", "note": "(configuration not stated)", "activity, negative = inhibition": "inactive: -2.35%"},
      {"smiles": "CC1CCN(CCCCOc2ccccc2[N+](=O)[O-])CC1", "activity, negative = inhibition": "inactive: 0.488%"},
      {"smiles": "O=c1cc(-c2ccc3c(c2)OCO3)oc2ccccc12", "Potency": "inconclusive: 100 µM [inhibitor, single point]"},
      {"smiles": "CCN(CC)C(=O)CSc1ncnc2c1nnn2-c1ccc(F)cc1", "Potency": "inconclusive: 22.4 µM [inhibitor, single point]"},
      {"smiles": "O=C(CN1CCN(c2ccc(F)cc2)CC1)Nc1nnc(-c2ccccc2)s1", "Potency": "inconclusive: 56.2 µM [inhibitor, single point]"},
      {"smiles": "O=C(NC1CCN(C(=S)NCc2ccco2)CC1)NC12CC3CC(CC(C3)C1)C2", "Potency": "inconclusive: 17.8 µM [inhibitor, single point]"},
      {"smiles": "CC(C(=O)NN=C(c1ccccc1)c1ccccc1)N1CCCC1", "note": "(configuration not stated)", "Potency": "inconclusive: 20 µM [inhibitor, single point]"},
      {"smiles": "COc1ccc(NC(=O)CC2C(=O)N(c3ccc(F)cc3)C(=S)N2NC(=O)c2ccc(Cl)cc2)cc1", "note": "(configuration not stated)", "Potency": "inconclusive: 22.4 µM [inhibitor, single point]"},
      {"smiles": "CC1CCCN(CC(O)COc2ccc(Cl)cc2)C1", "note": "(configuration not stated)", "Potency": "inconclusive: 200 µM [inhibitor, partial curve, poor fit]"},
      {"smiles": "CCOC(=O)c1cn(-c2ccc([N+](=O)[O-])cc2)c2cc(Cl)c([N+](=O)[O-])cc2c1=O", "Potency": "inconclusive: 50.1 µM [inhibitor, single point]"},
      {"smiles": "CCc1c(C2(O)CCCCC2)[nH]c2cnccc12", "activity, negative = inhibition": "inactive: -1.43%"},
      {"smiles": "Cc1cc(C)c2cc(C#N)c(NCCNC(=S)NCCCN3CCOCC3)nc2c1", "Potency": "inconclusive: 70.8 µM [inhibitor, single point]"},
      {"smiles": "CSCC(O)Cn1[nH]c(=O)c2cc(Cl)c(Cl)cc2c1=O", "note": "(configuration not stated)", "Potency": "inconclusive: 126 µM [inhibitor, partial curve, poor fit]"},
      {"smiles": "Cc1ccc(-c2nnc(COC(=O)c3ccco3)o2)cc1", "Potency": "inconclusive: 100 µM [inhibitor, single point]"},
      {"smiles": "N#CC1=C(SCC(=O)NC2CC2)NC(=O)C(C#N)C12CCCCC2", "note": "(configuration not stated)", "Potency": "inconclusive: 100 µM [inhibitor, single point]"},
      {"smiles": "CCN(CC(=O)Nc1ccc(NC(C)=O)cc1)C(=O)c1ccccc1SCc1c(C)noc1C", "activity, negative = inhibition": "inactive: 3.87%"},
      {"smiles": "Cc1cc(OCCOCCN2CCCC2)ccc1C(C)C", "Potency": "inconclusive: 89.1 µM [inhibitor, single point]"},
      {"smiles": "O=C(NCCc1cccnc1)C1CCC(=O)N(Cc2cccc(C(F)(F)F)c2)C1", "note": "(configuration not stated)", "Potency": "inconclusive: 15.8 µM [inhibitor, single point]"},
      {"smiles": "CCCC(c1nnnn1Cc1ccc2c(c1)OCO2)N1CCC(C(N)=O)CC1", "note": "(configuration not stated)", "Potency": "inconclusive: 35.5 µM [inhibitor, single point]"},
      {"smiles": "Cc1nc2c3ccccc3nc(NNC(=O)CCC(=O)N3CCC(C)CC3)n2n1", "Potency": "inconclusive: 7.08 µM [inhibitor, single point]"},
      {"smiles": "CCn1ncc(C2=NOC(C(=O)N3CCC(C(N)=O)CC3)C2)c1C", "note": "(configuration not stated)", "Potency": "inconclusive: 100 µM [inhibitor, single point]"},
      {"smiles": "CN(C(=O)c1cncc(Br)c1)c1c(N)n(Cc2ccccc2)c(=O)[nH]c1=O", "Potency": "inconclusive: 25.1 µM [inhibitor, single point]"},
      {"smiles": "CN1OC2C(=O)N(c3ccccc3)C(=O)C2C1c1ccc(F)cc1", "note": "(configuration not stated)", "activity, negative = inhibition": "inactive: -1.44%"},
      {"smiles": "O=C(Nc1ccccc1)OC(CN1CCCCC1)C(F)(F)F", "note": "(configuration not stated)", "Potency": "inconclusive: 89.1 µM [inhibitor, single point]"},
      {"smiles": "COc1ccc(-c2cc(C(F)(F)F)n3nc(C(=O)Nc4cc(C)on4)cc3n2)cc1OC", "activity, negative = inhibition": "inactive: -0.144%"},
      {"smiles": "Cc1cccc(NS(=O)(=O)c2ccc(C(C)(C)C)cc2)n1", "Potency": "inconclusive: 11.2 µM [inhibitor, single point]"},
      {"smiles": "Cc1ccc(COc2ccc(C)nc2[N+](=O)[O-])cc1", "Potency": "inconclusive: 15.8 µM [inhibitor, single point]"},
      {"smiles": "CC(=O)N(C(C)=O)N1C(=O)c2cccc3c(N4CCOCC4)ccc(c23)C1=O", "Potency": "inconclusive: 112 µM [inhibitor, single point]"},
      {"smiles": "CCOC(=O)CSc1nc(Cc2ccccc2)nc2ccccc12", "Potency": "inconclusive: 50.1 µM [inhibitor, single point]"},
      {"smiles": "CCOC(=O)C1CCCN(C(=O)c2ccc3nc(-c4ccccc4)c(-c4ccccc4)nc3c2)C1", "note": "(configuration not stated)", "Potency": "active: 39.8 µM"}
    ]}
  ]
}
